Data reported in paper PMC4721544.
Results are given in words; binding and its absence hold for the method and conditions named. Binding seen in cells or lysates may run through a third protein. Some entries that bind do so weakly or less than the wild type. For part of these data: Sequences can lack the tags named with a protein. Each block holds one molecule with its values, some of them ahead of it.

Sequences of proteins named here, by UniProt entry; tags and fusion partners are left off. A change or cut given only in a name is not applied to a line headed by its entry.
UniProt P70460: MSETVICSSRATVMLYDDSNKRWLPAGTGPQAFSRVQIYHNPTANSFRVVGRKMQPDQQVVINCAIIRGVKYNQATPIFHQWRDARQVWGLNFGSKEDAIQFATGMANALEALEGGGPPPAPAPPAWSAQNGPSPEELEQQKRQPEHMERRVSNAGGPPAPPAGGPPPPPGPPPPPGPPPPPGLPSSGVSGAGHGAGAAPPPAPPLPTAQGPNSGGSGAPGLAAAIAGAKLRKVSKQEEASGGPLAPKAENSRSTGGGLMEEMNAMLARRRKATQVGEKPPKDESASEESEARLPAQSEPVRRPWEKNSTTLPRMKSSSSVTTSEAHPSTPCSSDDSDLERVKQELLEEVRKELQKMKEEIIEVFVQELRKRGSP

Key:
FLAG-VASP^WT (mouse) = FLAG-VASP^WT (mouse) (UniProt P70460); test: co-IP; MV^D7 cells co-transfected with a FLAG-tagged and an EGFP-tagged protein; FLAG-tagged protein precipitated with Anti-DYKDDDK magnetic beads for 2 h; EGFP-tagged partner detected by western blot; lysis buffer 1% IGEPAL CA-630, 200 mM NaCl, 50 mM TRIS pH 7.5
FLAG-EVL (mouse) = target: T1, FLAG-EVL (mouse) (UniProt P70429); test: as above
T1 sequence: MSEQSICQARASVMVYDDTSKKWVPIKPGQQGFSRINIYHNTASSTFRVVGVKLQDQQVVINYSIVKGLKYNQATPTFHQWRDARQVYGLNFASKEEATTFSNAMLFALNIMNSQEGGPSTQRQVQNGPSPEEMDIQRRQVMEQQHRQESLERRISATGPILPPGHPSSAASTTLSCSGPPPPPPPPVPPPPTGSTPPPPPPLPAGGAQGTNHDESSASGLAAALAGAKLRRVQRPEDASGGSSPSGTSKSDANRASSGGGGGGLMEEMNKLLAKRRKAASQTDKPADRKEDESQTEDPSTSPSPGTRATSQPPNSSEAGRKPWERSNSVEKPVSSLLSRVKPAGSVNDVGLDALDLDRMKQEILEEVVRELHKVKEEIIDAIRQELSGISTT

EGFP-EVL (mouse) = target: T2, EGFP-EVL (mouse) (UniProt P70429); test: co-IP; MV^D7 cells co-transfected with a FLAG-tagged and an EGFP-tagged protein; EGFP-tagged protein precipitated with rabbit polyclonal anti-GFP, Protein G Dynabeads, 4°C; FLAG-tagged partner detected by western blot; lysis buffer 1% IGEPAL CA-630, 200 mM NaCl, 50 mM TRIS pH 7.5
T2 sequence: T1 sequence

binding (FLAG-VASP^WT (mouse)): binds | binding (FLAG-EVL (mouse)): binds
Molecule: EGFP-EVH2(VASP) (from UniProt P70460 221-375) (domain or fragment)

binding (EGFP-EVL (mouse)): binds
B1: FLAG-EVL (protein, UniProt P70429-2 1-393)
chain: T1 sequence
